# Primary screen of a compound library

Chains of the proteins cited; added tags and fusions are not shown.
UniProt E9BF75, entry or part of it: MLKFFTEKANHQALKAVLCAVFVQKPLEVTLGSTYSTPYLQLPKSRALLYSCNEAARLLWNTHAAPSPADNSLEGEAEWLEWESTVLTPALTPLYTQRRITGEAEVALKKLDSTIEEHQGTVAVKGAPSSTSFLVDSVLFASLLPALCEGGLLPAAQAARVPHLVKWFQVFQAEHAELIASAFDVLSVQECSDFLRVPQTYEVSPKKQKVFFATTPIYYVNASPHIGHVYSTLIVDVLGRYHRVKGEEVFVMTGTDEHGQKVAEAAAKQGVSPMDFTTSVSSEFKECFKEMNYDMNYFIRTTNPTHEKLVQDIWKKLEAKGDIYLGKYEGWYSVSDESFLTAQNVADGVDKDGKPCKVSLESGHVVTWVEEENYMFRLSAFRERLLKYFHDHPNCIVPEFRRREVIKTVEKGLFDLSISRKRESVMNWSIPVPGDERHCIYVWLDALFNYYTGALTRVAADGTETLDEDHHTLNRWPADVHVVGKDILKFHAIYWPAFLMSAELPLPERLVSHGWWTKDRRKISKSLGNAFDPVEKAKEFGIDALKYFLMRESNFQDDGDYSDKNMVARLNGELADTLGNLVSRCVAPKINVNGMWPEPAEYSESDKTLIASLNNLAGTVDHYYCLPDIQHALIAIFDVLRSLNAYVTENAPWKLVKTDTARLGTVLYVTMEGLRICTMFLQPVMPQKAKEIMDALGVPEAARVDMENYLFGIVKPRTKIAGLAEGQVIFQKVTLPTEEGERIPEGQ

LdMetRS: 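Methionyl-tRNA synthetase (putative), Leishmania donovani (UniProt E9BF75). Primary screen of methionyl-tRNA synthetase; the read-out is not stated. The test concentration is not given. Values are per cent inhibition. Of about 68,000 compounds tested this way, about 24 (0.035%) reached 50% or more in at least one test.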
Mtb heat-shock: 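Assay on Mycobacterium tuberculosis, filed only as a heat shock assay from Cornell; the read-out is not stated. The concentration is filed as 10 mM, unlikely as a test dose, so the dose is not known. The record gives no direction; compounds that gave an IC50 in retests scored well above the rest, so higher reads as stronger inhibition. Of about 69,000 compounds tested this way, about 930 (1.4%) reached 50% or more in at least one test.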

Results are percentages, as filed.
The controls that fix the scale are not given in the record; negative values are as filed.
This is an unselected part of the compounds tested.

Result for c1csc(CN2CCO[C@H]3[C@H](OCC4CCCC4)CC[C@@H]32)n1 was LdMetRS: 13.33%.
Result for CCNc1ncc(C(=O)NC(CC)c2ccnn2C)cn1 (stereo not shown) was LdMetRS: 9.296%; Mtb heat-shock: 14.55%.
Result for O=C(CCN1CCCO1)N1CC[C@@H](CNC(=O)N2CCCC2)[C@H](O)C1 was LdMetRS: 5.167%; Mtb heat-shock: -5.84%.
Result for O=C(NCc1ccccc1F)N1CCC(C2OCCO2)CC1 was LdMetRS: 11.27%; Mtb heat-shock: -4.839%.
Result for Cc1ccc(CN2CCC3(CCN(c4cnn(C)c4)C3=O)C2)s1 (stereo not shown) was LdMetRS: 7.333%.
Result for CNc1ccnc(N2CCCC(C(=O)c3ccccn3)C2)n1 (stereo not shown) was LdMetRS: 7.038%; Mtb heat-shock: -22.67%.
Result for CN1CCN(C(=O)N2C[C@H]3CC[C@@H]2CN(Cc2ccccc2)C3)CC1 was LdMetRS: 10.67%.
Result for Cc1cc(C)c(S(=O)(=O)Nc2c(C)nc(N3CCCC3)nc2C)cc1C was LdMetRS: 12.95%; Mtb heat-shock: -4.346%.
Result for CN(C)c1no[n+]([O-])c1-c1ccccc1 was LdMetRS: 4.805%; Mtb heat-shock: -8.571%.
Result for COC(=O)c1ccc(S(=O)(=O)NCC(O)c2sccc2C)cc1 (stereo not shown) was LdMetRS: 13.67%; Mtb heat-shock: 5.298%.
Result for CNC(=O)COc1cccc(CNCc2c(C)noc2C)c1 was LdMetRS: 7.205%; Mtb heat-shock: -4.418%.
Result for Cn1c(CN2CCCC(N3CCCCCC3)C2)cc(=O)n(C)c1=O (stereo not shown) was LdMetRS: -13.81%; Mtb heat-shock: -7.025%.
Result for CC(C)(C)c1ccc2c(c1)CCN2C(=O)c1[nH]c(=O)[nH]c(=O)c1N was LdMetRS: 16.43%; Mtb heat-shock: 20.21%.
Result for O=C(c1cccc(Cl)c1F)N1CCOC2(CNCCOC2)C1 (stereo not shown) was LdMetRS: 9.365%; Mtb heat-shock: -4.205%.
Result for COC(=O)N1CCCCC1C(=O)N(C)Cc1cc(-c2cccnc2)no1 (stereo not shown) was LdMetRS: 7.394%; Mtb heat-shock: 11.64%.
Result for CCc1ccc(CN2CCC3(CC2)NC(=O)CC3c2ccncc2)o1.O=C(O)C(F)(F)F.O=C(O)C(F)(F)F (stereo not shown) was Mtb heat-shock: 13.93%.
Result for COc1cc(NC(=O)Cn2ccc3sc(C)cc3c2=O)cc(OC)c1 was LdMetRS: 15.69%; Mtb heat-shock: -9.559%.
Result for CCNC(=O)[C@@H]1CCCN1[C@@H](C(=O)NC)C1CC1.Cl was Mtb heat-shock: 2.539%.
Result for Cc1ccc(OCCCNC(=O)C2(C)CC(=O)N3C=CC=CC3=N2)cc1 (stereo not shown) was LdMetRS: 21.07%; Mtb heat-shock: -9.716%.
Result for Cc1nnc([C@]23COC[C@H]2CN(Cc2cccs2)C3)o1 was LdMetRS: 11.59%.
Result for NS(=O)(=O)c1cccc(CNc2nccc(C(F)(F)F)n2)c1 was LdMetRS: 18.71%; Mtb heat-shock: 4.043%.
Result for [H][C@]12CC[C@]([H])(CN(c3nnc(C(C)C)s3)C1)N(CC1CCC1)C2 was Mtb heat-shock: 30.69%.
Result for CCCc1nc(C)c(CNc2nc(C)nc3oc(C)nc23)s1 was LdMetRS: 4.632%; Mtb heat-shock: 18.07%.
Result for CCCn1ccnc1CN1CCCC(O)(CN2CCCC2)C1 (stereo not shown) was LdMetRS: 7.463%; Mtb heat-shock: 1.471%.
Result for Cc1ccc(CCc2nc(C3CCOC3)no2)o1 (stereo not shown) was LdMetRS: 13.62%; Mtb heat-shock: 4.667%.
Result for c1cnc(N2CCC(c3nccn3CC3CC3)CC2)nc1 was LdMetRS: 13.01%; Mtb heat-shock: -1.776%.
Result for Cc1noc(C)c1C(=O)N1C[C@@H]2COC[C@]2(COc2ccccn2)C1 was LdMetRS: -1.307%.
Result for Cn1cc(CC(CNC(=O)Nc2cccc(Cl)c2)C(N)=O)cn1 (stereo not shown) was LdMetRS: 10.14%; Mtb heat-shock: 11.55%.
Result for OCC1CCCN1c1cc(NCc2cccnc2)ncn1 (stereo not shown) was LdMetRS: 9.036%; Mtb heat-shock: 0.4834%.
Result for c1ccc(-c2nnc3sc(CCN4CCCCCC4)nn23)cc1 was LdMetRS: 19.24%; Mtb heat-shock: 5.131%.
Result for CC(=O)N(C)Cc1cccc(NC(=O)CCCc2nc(C(C)C)no2)c1 was LdMetRS: 5.744%; Mtb heat-shock: 3.721%.

From ChEMBL document CHEMBL3988442, “University of Dundee, Small-Polar-MMV Screening Library” (2021).